# Source: the supplement of paper PMC10849652
# Protein sequences, listed by entry. Tags and fused reporters are not part of them. Lines headed by an entry give the natural chain unless they say otherwise; changes in a name come on top.
# UniProt Q14116, whole entry, looked up: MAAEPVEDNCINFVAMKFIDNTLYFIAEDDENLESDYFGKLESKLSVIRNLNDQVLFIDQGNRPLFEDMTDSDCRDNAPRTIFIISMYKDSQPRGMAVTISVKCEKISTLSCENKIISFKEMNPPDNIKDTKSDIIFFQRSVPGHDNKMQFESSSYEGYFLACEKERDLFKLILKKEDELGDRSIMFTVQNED
# UniProt Q13123, whole entry, looked up: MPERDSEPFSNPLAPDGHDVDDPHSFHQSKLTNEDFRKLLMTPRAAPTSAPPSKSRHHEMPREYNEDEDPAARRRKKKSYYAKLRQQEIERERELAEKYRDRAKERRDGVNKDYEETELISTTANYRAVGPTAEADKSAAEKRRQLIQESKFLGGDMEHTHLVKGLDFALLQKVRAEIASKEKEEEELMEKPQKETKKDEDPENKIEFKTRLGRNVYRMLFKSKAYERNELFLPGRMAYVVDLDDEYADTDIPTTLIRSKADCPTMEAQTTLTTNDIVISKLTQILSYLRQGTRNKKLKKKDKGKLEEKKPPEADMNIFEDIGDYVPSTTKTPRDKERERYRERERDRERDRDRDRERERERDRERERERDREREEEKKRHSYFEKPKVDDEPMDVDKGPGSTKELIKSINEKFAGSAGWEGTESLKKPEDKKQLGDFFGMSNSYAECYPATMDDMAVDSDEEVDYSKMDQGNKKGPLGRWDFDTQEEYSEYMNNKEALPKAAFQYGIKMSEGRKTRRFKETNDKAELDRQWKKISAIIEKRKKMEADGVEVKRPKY
# UniProt P41134: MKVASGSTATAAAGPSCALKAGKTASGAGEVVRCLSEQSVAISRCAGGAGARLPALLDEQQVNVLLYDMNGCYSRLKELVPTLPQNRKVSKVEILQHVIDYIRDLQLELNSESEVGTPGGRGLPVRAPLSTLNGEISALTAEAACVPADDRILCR
# UniProt O75054: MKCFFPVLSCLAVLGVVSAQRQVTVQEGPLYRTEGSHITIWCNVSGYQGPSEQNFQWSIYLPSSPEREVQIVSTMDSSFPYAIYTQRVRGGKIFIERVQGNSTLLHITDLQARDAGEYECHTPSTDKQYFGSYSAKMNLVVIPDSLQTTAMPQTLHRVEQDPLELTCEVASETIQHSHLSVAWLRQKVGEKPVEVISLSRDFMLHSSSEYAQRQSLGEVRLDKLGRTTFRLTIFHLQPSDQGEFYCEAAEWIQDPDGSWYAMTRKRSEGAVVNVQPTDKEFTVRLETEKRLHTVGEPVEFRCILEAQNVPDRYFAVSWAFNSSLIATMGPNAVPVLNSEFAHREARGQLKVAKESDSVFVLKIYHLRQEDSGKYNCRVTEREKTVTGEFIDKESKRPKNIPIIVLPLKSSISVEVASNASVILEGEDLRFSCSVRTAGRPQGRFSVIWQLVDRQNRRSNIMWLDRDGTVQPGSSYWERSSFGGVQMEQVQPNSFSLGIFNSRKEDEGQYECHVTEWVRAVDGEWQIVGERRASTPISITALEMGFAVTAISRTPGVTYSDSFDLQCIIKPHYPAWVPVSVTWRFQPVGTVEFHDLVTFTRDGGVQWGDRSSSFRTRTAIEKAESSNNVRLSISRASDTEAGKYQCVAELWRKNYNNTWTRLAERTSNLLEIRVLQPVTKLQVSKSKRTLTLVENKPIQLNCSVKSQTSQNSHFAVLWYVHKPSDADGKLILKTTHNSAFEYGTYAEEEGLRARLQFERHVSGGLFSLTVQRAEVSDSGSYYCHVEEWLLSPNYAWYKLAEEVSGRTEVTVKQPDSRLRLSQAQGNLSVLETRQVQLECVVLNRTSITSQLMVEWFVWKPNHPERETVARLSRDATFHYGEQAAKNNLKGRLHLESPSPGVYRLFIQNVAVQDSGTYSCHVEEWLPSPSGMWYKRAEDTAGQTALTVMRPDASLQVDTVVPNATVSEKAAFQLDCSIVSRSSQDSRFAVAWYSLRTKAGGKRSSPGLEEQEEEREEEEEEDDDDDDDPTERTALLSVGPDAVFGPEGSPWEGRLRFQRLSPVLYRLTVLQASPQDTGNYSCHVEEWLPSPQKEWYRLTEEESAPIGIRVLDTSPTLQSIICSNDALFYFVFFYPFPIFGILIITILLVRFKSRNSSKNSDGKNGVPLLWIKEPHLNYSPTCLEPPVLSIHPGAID
# UniProt Q9P2D0: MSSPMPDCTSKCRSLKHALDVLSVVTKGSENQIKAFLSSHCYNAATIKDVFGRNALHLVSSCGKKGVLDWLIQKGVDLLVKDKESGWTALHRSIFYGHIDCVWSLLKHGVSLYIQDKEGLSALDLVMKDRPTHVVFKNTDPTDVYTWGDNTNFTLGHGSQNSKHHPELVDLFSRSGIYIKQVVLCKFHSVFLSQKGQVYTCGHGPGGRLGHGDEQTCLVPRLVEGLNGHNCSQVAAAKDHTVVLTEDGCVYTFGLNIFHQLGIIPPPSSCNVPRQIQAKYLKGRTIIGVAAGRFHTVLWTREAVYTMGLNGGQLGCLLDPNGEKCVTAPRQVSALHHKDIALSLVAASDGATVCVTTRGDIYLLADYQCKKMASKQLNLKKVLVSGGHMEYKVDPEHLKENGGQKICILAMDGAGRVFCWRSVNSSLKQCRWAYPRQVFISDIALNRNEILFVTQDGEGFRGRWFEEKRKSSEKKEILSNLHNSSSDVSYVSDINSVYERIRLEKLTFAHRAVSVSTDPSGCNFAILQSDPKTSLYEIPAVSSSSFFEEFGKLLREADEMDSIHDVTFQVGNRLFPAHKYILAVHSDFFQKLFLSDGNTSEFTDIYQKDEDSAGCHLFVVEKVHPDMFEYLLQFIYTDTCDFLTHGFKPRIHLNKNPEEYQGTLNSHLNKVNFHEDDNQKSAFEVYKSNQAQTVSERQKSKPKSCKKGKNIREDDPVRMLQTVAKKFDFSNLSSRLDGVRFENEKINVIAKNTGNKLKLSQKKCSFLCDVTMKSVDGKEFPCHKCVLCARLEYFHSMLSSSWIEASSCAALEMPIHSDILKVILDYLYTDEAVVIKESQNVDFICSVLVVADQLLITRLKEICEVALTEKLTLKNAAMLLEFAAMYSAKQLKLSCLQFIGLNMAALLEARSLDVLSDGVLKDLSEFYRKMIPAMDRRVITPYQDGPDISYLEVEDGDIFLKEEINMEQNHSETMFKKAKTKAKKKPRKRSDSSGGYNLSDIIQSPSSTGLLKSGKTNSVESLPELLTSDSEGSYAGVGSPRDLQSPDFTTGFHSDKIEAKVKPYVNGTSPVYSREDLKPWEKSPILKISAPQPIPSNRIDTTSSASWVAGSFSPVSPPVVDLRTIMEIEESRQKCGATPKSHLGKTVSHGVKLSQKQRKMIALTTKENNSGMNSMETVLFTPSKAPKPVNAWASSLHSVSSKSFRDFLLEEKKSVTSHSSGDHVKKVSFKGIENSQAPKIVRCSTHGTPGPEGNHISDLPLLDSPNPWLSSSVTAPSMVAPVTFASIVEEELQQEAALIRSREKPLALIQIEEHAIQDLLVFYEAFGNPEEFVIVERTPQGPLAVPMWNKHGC
# UniProt P78318: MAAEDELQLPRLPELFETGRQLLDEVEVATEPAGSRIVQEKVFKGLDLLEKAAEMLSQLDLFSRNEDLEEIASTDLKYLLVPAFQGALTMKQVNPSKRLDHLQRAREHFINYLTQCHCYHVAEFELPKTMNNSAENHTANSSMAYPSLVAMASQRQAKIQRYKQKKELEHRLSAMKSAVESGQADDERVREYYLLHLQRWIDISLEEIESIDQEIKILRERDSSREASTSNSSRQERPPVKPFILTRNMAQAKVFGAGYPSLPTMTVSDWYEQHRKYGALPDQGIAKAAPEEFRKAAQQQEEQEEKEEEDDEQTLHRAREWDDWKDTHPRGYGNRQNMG
# UniProt Q96LB3: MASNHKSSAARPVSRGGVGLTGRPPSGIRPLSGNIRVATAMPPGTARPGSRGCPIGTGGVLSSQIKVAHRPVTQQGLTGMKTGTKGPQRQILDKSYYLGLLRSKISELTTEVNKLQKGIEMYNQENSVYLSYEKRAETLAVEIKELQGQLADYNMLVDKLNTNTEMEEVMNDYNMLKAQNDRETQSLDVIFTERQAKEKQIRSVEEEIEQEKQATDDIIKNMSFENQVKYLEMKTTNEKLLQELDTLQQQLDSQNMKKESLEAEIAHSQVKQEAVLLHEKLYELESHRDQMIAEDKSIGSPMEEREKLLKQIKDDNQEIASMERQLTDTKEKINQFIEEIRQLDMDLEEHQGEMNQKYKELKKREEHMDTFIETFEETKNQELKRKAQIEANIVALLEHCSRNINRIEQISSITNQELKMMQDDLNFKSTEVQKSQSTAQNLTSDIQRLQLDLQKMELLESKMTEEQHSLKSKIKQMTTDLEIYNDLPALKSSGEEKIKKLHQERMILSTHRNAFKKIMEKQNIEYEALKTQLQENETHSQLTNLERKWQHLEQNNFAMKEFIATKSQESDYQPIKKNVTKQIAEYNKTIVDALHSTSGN
# UniProt Q9NX62: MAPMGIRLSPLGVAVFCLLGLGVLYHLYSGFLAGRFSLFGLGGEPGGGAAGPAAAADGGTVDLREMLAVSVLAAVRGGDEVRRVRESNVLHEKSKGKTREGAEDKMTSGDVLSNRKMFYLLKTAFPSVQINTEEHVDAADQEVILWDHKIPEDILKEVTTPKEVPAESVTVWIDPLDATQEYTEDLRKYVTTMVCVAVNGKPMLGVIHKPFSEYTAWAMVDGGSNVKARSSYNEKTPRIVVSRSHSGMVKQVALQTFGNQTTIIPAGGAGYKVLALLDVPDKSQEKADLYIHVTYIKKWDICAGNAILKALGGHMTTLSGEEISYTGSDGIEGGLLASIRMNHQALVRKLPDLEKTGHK
# UniProt Q12906, whole entry, looked up: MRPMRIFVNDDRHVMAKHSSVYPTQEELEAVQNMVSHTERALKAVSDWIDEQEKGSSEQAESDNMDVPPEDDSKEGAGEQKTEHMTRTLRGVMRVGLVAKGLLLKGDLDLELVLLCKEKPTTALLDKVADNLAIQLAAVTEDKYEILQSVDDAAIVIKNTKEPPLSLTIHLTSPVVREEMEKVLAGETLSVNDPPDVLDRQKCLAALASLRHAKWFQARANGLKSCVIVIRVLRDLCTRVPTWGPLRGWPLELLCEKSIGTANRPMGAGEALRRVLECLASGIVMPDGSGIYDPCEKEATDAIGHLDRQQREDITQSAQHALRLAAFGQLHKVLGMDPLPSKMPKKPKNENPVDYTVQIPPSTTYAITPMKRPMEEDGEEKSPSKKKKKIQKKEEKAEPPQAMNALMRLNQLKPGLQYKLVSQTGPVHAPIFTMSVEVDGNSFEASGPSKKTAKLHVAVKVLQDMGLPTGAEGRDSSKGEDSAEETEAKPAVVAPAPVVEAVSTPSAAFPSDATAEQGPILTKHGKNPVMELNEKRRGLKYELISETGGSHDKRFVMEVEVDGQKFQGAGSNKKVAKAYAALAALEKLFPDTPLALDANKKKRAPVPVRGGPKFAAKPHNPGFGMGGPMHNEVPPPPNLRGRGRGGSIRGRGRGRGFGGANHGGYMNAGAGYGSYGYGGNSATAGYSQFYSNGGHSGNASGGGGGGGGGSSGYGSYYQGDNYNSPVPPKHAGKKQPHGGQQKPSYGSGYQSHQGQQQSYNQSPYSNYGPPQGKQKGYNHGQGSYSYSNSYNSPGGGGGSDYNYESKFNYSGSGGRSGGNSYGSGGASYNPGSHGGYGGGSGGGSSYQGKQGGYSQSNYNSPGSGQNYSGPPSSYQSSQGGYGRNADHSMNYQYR
# UniProt Q9Y6M1: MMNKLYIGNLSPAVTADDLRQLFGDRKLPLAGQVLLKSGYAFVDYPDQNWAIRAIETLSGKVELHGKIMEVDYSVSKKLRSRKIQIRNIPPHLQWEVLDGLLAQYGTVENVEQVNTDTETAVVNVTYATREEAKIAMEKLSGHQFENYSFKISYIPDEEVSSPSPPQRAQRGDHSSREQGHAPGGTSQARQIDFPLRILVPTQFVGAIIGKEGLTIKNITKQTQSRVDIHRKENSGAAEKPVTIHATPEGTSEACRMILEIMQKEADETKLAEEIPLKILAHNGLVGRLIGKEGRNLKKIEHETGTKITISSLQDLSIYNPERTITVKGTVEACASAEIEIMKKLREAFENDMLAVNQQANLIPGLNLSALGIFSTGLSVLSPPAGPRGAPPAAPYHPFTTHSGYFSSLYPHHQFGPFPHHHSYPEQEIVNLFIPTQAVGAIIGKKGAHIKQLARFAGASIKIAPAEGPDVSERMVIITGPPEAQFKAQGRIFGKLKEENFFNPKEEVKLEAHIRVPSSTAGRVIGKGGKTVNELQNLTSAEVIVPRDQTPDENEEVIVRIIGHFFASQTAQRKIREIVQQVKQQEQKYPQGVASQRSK
# UniProt Q9H6K1: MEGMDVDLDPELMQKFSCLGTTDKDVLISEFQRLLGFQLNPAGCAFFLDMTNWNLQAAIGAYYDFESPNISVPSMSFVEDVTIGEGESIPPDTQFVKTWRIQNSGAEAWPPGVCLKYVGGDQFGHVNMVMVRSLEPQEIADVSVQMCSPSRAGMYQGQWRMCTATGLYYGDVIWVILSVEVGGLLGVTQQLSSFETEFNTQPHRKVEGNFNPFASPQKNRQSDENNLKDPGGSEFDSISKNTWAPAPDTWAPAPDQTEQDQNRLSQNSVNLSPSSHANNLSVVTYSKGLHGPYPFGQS
# This is one part of the list.
# Compound: NCC(=O)Nc1ccc(-n2nc(C(F)(F)F)cc2-c2ccc3c(ccc4ccccc43)c2)cc1
# Experiment: log2 fold change, soluble protein after heating vs DMSO (PISA); higher = thermal stabilisation; K562 lysate, 10 uM; active = over 0.2 and 3.5 SD of the protein, either way, in both replicates (recomputed)
# How it was run: (§1)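 Soluble protein was defined as the supernatant remaining after 21,000xg for 90 min, following pooling of heated aliquots and adjustment to 0.5% NP-40 at 4°C. Before that, crude K562 extract at 1 mg/mL protein in PBS pH 7.4 with 1 mM MgCl2 was treated with 10 μM compound for 30 min and heated for 3 min across 48°C-58°C. Quantification used TMTpro 16plex LC-MS/MS with channel sums equalised, and values are log-two fold changes in thermal stability relative to solvent controls from duplicates.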
row,Target,log2 fold change
1,IL18 (UniProt Q14116),inactive: 0.011
2,IK (UniProt Q13123),inactive: 0.03
3,ID1 (UniProt P41134),inactive: -0.124
4,IGSF3 (UniProt O75054),inactive: 0.001
5,IMPDH2 (UniProt H0Y4R1),inactive: -0.044
6,HSPB11 (UniProt Q9Y547),inactive: 0.031
7,IBTK (UniProt Q9P2D0),inactive: 0.054
8,IGBP1 (UniProt P78318),inactive: -0.009
9,INPP4A (UniProt Q96PE3),inactive: 0.016
10,INPP5B (UniProt P32019),inactive: 0.01
11,HTT (UniProt P42858),inactive: -0.029
12,HYOU1 (UniProt J3QL06),inactive: 0.108
13,IGHA1 (UniProt P01876),inactive: -0.035
14,IFT74 (UniProt Q96LB3),inactive: 0.071
15,IDH3G (UniProt P51553),inactive: -0.069
16,IMPAD1 (UniProt Q9NX62),inactive: -0.017
17,ILF3 isoform 7 (UniProt Q12906),inactive: 0.004
18,ICAM2 (UniProt P13598),inactive: -0.016
19,IGHG1 (UniProt P01857),inactive: -0.13
20,INTS1 (UniProt Q8N201),inactive: 0.014
21,IGF2BP2 (UniProt Q9Y6M1),inactive: -0.016
22,ILRUN (UniProt Q9H6K1),inactive: 0.002
23,IDH2 (UniProt P48735),inactive: -0.01
24,ICE2 (UniProt Q659A1),inactive: -0.032
25,IFT122 isoform 5 (UniProt Q9HBG6),inactive: -0.191

# Compound: O=C(CCCCCCC(=O)Nc1ccccc1)NO [vorinostat]
# Experiment: as above
# How it was run: as §1
row,Target,log2 fold change
1,IL18 (UniProt Q14116),inactive: 0.043
2,IK (UniProt Q13123),inactive: -0.171
3,ID1 (UniProt P41134),inactive: 0.059
4,IGSF3 (UniProt O75054),inactive: 0.131
5,HSPB11 (UniProt Q9Y547),inactive: 0.146
6,IBTK (UniProt Q9P2D0),inactive: -0.052
7,IGBP1 (UniProt P78318),inactive: 0.072
8,INPP4A (UniProt Q96PE3),inactive: -0.106
9,IGFBP4 (UniProt P22692),inactive: 0.049
10,INPP5B (UniProt P32019),inactive: -0.141
11,HTT (UniProt P42858),active: -0.331
12,HYOU1 (UniProt J3QL06),inactive: -0.037
13,IGHA1 (UniProt P01876),inactive: 0.033
14,IFT57 (UniProt Q9NWB7),inactive: -0.17
15,IFT74 (UniProt Q96LB3),inactive: 0.095
16,IDH3G (UniProt P51553),inactive: 0.083

row,Target,log2 fold change
1,IMPAD1 (UniProt Q9NX62),inactive: 0.1
2,ILF3 isoform 7 (UniProt Q12906),inactive: 0.092
3,HSPBAP1 (UniProt Q96EW2),inactive: -0.07
4,ICAM2 (UniProt P13598),inactive: 0.148
5,INO80E (UniProt Q8NBZ0),inactive: 0.017
6,IGHMBP2 (UniProt P38935),inactive: 0.028
7,IGHG1 (UniProt P01857),inactive: 0.164
8,INTS1 (UniProt Q8N201),active: -0.409
9,IL27RA (UniProt Q6UWB1),inactive: 0.141
10,HSPA8 (UniProt E9PN89),inactive: -0.01
11,IGF2BP2 (UniProt Q9Y6M1),active: -0.239
12,ILRUN (UniProt Q9H6K1),inactive: -0.047
13,IMMP1L (UniProt Q96LU5),inactive: 0.067
14,IDH2 (UniProt P48735),inactive: -0.194
15,ICE2 (UniProt Q659A1),inactive: -0.178

# Compound: O=C(O)c1ccc2c(c1)nc(Nc1cccc(Cl)c1)c1ccncc12 [silmitasertib]
# Experiment: as above
# How it was run: as §1
row,Target,log2 fold change
1,IL18 (UniProt Q14116),inactive: 0.031
2,IK (UniProt Q13123),inactive: -0.019
3,ID1 (UniProt P41134),inactive: -0.015
4,IGSF3 (UniProt O75054),inactive: 0.098
5,HSPB11 (UniProt Q9Y547),inactive: -0.034
6,IBTK (UniProt Q9P2D0),inactive: -0.02
7,IGBP1 (UniProt P78318),inactive: 0.005
8,INPP4A (UniProt Q96PE3),inactive: 0.002
9,IGFBP4 (UniProt P22692),inactive: -0.026
10,INPP5B (UniProt P32019),inactive: -0.006
11,HTT (UniProt P42858),inactive: 0.04
12,HYOU1 (UniProt J3QL06),inactive: 0.028
13,IGHA1 (UniProt P01876),inactive: -0.01
14,IFT57 (UniProt Q9NWB7),inactive: 0.094
15,IFT74 (UniProt Q96LB3),inactive: -0.023
16,IDH3G (UniProt P51553),inactive: 0.006

row,Target,log2 fold change
1,IMPAD1 (UniProt Q9NX62),inactive: -0.022
2,ILF3 isoform 7 (UniProt Q12906),inactive: 0.005
3,HSPBAP1 (UniProt Q96EW2),inactive: 0.044
4,ICAM2 (UniProt P13598),inactive: -0.029
5,INO80E (UniProt Q8NBZ0),inactive: -0.098
6,IGHMBP2 (UniProt P38935),inactive: 0.088
7,IGHG1 (UniProt P01857),inactive: -0.314
8,INTS1 (UniProt Q8N201),inactive: 0.027
9,IL27RA (UniProt Q6UWB1),inactive: -0.268
10,HSPA8 (UniProt E9PN89),inactive: 0.016
11,IGF2BP2 (UniProt Q9Y6M1),inactive: 0.088
12,ILRUN (UniProt Q9H6K1),inactive: 0.001
13,IMMP1L (UniProt Q96LU5),inactive: 0.039
14,IDH2 (UniProt P48735),inactive: 0.051
15,ICE2 (UniProt Q659A1),inactive: 0.051
